Experimental data: PubChem BioAssay AID1259424 (University of Nebraska Medical Center, 2018)
The whole screen tested about 14,000 reagents; this is a random part of them. 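Higher correlation or smaller distance means closer resemblance to KSR1 loss; control wells, including KSR1 knockdowns, recur on many plates.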 Not all columns of the deposit are shown. The record does not give: the time to read-out.

- Assay: 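Seek colon cancer survival genes behaving like KSR1, using a six-gene signature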 (primary screen)
- Cells: human HCT116 colon cancer cells
- Knock-down reagent: siRNA pool against human genes, 50 nM
- Measured: 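Log2 levels of six mRNAs (branched-DNA multiplex), adjusted by two reference genes and the non-targeting median, then scored against the average KSR1 knockdown pattern as Pearson r and euclidean distance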
- Direction: mean correlation with KSR1 profile: higher = expression change more like KSR1 knockdown

After knock-down of MYL11 [SID363998413], the record shows mean correlation with KSR1 profile -0.717. With knock-down of MYPN [SID364004069] the results were mean correlation with KSR1 profile 0.153. Depletion of ZCCHC14 [SID363999328] came out at: mean correlation with KSR1 profile -0.358. For SOD3 [SID363994244] the deposit lists mean correlation with KSR1 profile -0.0226. Silencing of IGSF6 [SID363996723] resulted in: mean correlation with KSR1 profile -0.0221. For DGAT1 [SID363998029], the entry reads mean correlation with KSR1 profile 0.784.

For LIG4 [SID363993509], the values are mean correlation with KSR1 profile -0.294. Against CSF1 [SID363992050], the entry reads mean correlation with KSR1 profile 0.502. ERI3 [SID364005362] gave mean correlation with KSR1 profile -0.737. Silencing of TCF21 [SID363994339] resulted in: mean correlation with KSR1 profile -0.164.

Targets above whose target name starts with M or m (2):
MYL11 [SID363998413] | mean correlation with KSR1 profile = -0.717
MYPN [SID364004069] | mean correlation with KSR1 profile = 0.153

Further reagents follow.
For GLYAT [SID363996713], the values are mean correlation with KSR1 profile 0.0112. For KCNJ10 [SID363993441] the deposit lists mean correlation with KSR1 profile -0.489. Knock-down of ULBP3 [SID364002840] gave: mean correlation with KSR1 profile -0.0857. After knock-down of FAM217B [SID364002334], the screen gave mean correlation with KSR1 profile -0.186. Depletion of ARSA [SID363991810] resulted in: mean correlation with KSR1 profile -0.568. Against KMT2E [SID364001176], the values are mean correlation with KSR1 profile 0.319.

CIRSR [SID363995832] showed mean correlation with KSR1 profile -0.709. MPIG6B [SID364003351] scored mean correlation with KSR1 profile 0.278. For ATXN7 [SID363991665], the values are mean correlation with KSR1 profile 0.457.
